Measured values: PMC12488978
No constants are given. Whether binding was seen depends on the method and setting. Binding seen in cells or lysates may run through a third protein. Some binding calls cover weakened binding; strength is not graded here.

Target: HA-SpdyA (Speedy A with an HA tag knocked in at the endogenous Spdya gene) (mouse (endogenous in testis)) (UniProt Q5IBH7)
Assay: co-IP; anti-HA agarose on 3 mg testis protein lysate of PD17 Spdya^HA/HA mice (Spdya^+/+ as control), EBN++ buffer (80 mM beta-glycerophosphate pH 7.3, 20 mM EGTA, 15 mM MgCl2, 150 mM NaCl, 1 mg/ml ovalbumin, 0.5% NP-40), 4 °C overnight; immunoblot

CDK2 (endogenous) (from UniProt P97377 1-346) (enzyme)
binding: binds
